Data published in the supplement of paper PMC8497498.
± gives the standard deviation of the averaged measurements. Some of the results follow. The data scatter; read single values as rough.

Legend:
Conditions in all cases: 10 µM
[1] = test system: Plasmodium vivax liver stage (primary human hepatocyte culture); experiment: hypnozoite quantity inhibition (% inhibition); higher = more active against hypnozoites
[2] = test system: Plasmodium vivax liver stage (primary human hepatocyte culture); experiment: schizont net growth area inhibition (% inhibition); higher = more active against liver schizonts
[3] = test system: primary human hepatocytes; experiment: hepatic nuclei reduction relative to DMSO (100 - % of negative control); higher = more toxic to hepatocytes
[4] = assay mode: Prophylactic (treated before or shortly after infection), fixed day 6 post-infection
[5] = assay mode: Radical Cure (treated from day 5 post-infection for 3 days), fixed day 8 post-infection

In the case of `CCc1ccc(S(=O)(=O)Nc2cc(CN3CCN(CCC(C)C)CC3)ccc2C)cc1`, the hypnozoite quantity inhibition [1, 4] is reported as 17, the hypnozoite quantity inhibition [1, 5] is reported as -36 and the “schizont net growth area inhibition” value [2, 4] is reported as -10. The “schizont net growth area inhibition” value [2, 5] was -67.9, the hepatic nuclei reduction [3, 4] was 2% and the hepatic nuclei reduction [3, 5] was -9%.

`CCc1ccc(Nc2cc(C)nc3nc(C)nn23)cc1` was tested, and the hypnozoite quantity inhibition [1, 4] was 15.8, the hypnozoite quantity inhibition [1, 5] was 37.4 and the “schizont net growth area inhibition” value [2, 4] was 48.6. The “schizont net growth area inhibition” value [2, 5] was -0.1, the hepatic nuclei reduction [3, 4] was 3% and the hepatic nuclei reduction [3, 5] was 2%.

For `C[C@H](C(N)=O)N1CCCC[C@H]1c1ccc(OCc2cccc(F)c2)cc1`, the hypnozoite quantity inhibition [1, 4] was 7, the hypnozoite quantity inhibition [1, 5] was 1 and the “schizont net growth area inhibition” value [2, 4] was 17.2. For the same compound, the “schizont net growth area inhibition” value [2, 5] was 31, the hepatic nuclei reduction [3, 4] was 6% and the hepatic nuclei reduction [3, 5] was 2%.

In the case of `Clc1cccc(C(c2ccc(CN3CCNCC3)cc2)n2ccnc2)c1` (centres undefined), the hypnozoite quantity inhibition [1, 4] is reported as 6, the hypnozoite quantity inhibition [1, 5] is reported as 7 and the “schizont net growth area inhibition” value [2, 4] is reported as -65.7. For the same compound, the “schizont net growth area inhibition” value [2, 5] was -60.3, the hepatic nuclei reduction [3, 4] was -9% and the hepatic nuclei reduction [3, 5] was 2%.

With `CC(Oc1ccccc1)C(=O)Nc1nc(-c2ccccn2)cs1` (centres undefined) the hypnozoite quantity inhibition [1, 4] was 2, the hypnozoite quantity inhibition [1, 5] was 35 and the “schizont net growth area inhibition” value [2, 4] was 14.4. The “schizont net growth area inhibition” value [2, 5] was 36, the hepatic nuclei reduction [3, 4] was -3% and the hepatic nuclei reduction [3, 5] was 0%.

In the case of `CSc1nc(O)nc(-c2ccc(Cl)cc2)n1`, the hypnozoite quantity inhibition [1, 4] is reported as -26, the hypnozoite quantity inhibition [1, 5] is reported as 3.6 ± 20 and the “schizont net growth area inhibition” value [2, 4] is reported as 53.9. The “schizont net growth area inhibition” value [2, 5] was 11.9 ± 12, the hepatic nuclei reduction [3, 4] was -12% and the hepatic nuclei reduction [3, 5] was -5.5 ± 0.71%.

In the case of `N=C(N)Nc1ccc(-c2ccc(-c3ccc(NC(=N)N)cc3Cl)o2)c(Cl)c1`, the hypnozoite quantity inhibition [1, 4] is reported as 10, the hypnozoite quantity inhibition [1, 5] is reported as 11 and the “schizont net growth area inhibition” value [2, 4] is reported as -37.3. For the same compound, the “schizont net growth area inhibition” value [2, 5] was 24.1, the hepatic nuclei reduction [3, 4] was -13% and the hepatic nuclei reduction [3, 5] was -25%.

`CNC(=O)C1Cc2c([nH]c3cc(Cl)ccc23)C2(CCN(CCc3ccccc3)CC2)N1` (centres undefined) was tested, and the hypnozoite quantity inhibition [1, 4] was 4, the hypnozoite quantity inhibition [1, 5] was -31 and the “schizont net growth area inhibition” value [2, 4] was 62.1. For the same compound, the “schizont net growth area inhibition” value [2, 5] was -41, the hepatic nuclei reduction [3, 4] was -9% and the hepatic nuclei reduction [3, 5] was -4%.

For `COc1ccc(CCN2CCC(CN(C)Cc3cnn(-c4ccccc4)c3)CC2)cc1`, the hypnozoite quantity inhibition [1, 4] was -8.8, the hypnozoite quantity inhibition [1, 5] was 31.9 and the “schizont net growth area inhibition” value [2, 4] was 14.9. For the same compound, the “schizont net growth area inhibition” value [2, 5] was -11.6, the hepatic nuclei reduction [3, 4] was 2% and the hepatic nuclei reduction [3, 5] was -1%.

In the case of `Cc1ccc(S(=O)(=O)n2cc(-c3ccnc(N)c3)c3cc(Br)cnc32)cc1`, the hypnozoite quantity inhibition [1, 4] is reported as -27, the hypnozoite quantity inhibition [1, 5] is reported as 3 and the “schizont net growth area inhibition” value [2, 4] is reported as 89.4. The “schizont net growth area inhibition” value [2, 5] was 52.9, the hepatic nuclei reduction [3, 4] was 14% and the hepatic nuclei reduction [3, 5] was 11%.

In the case of `CCOC(=O)c1c(NC(=O)c2c(F)c(F)c(F)c(F)c2F)sc(C(N)=O)c1C`, the hypnozoite quantity inhibition [1, 4] is reported as 14, the hypnozoite quantity inhibition [1, 5] is reported as 24 and the “schizont net growth area inhibition” value [2, 4] is reported as 30.9. For the same compound, the “schizont net growth area inhibition” value [2, 5] was 45.3, the hepatic nuclei reduction [3, 4] was -1% and the hepatic nuclei reduction [3, 5] was -3%.

With `O=C1c2ccccc2C2=Nc3ccccc3SC(c3cccc(F)c3)C12` (centres undefined) the hypnozoite quantity inhibition [1, 4] was -25.8, the hypnozoite quantity inhibition [1, 5] was 61.1 and the “schizont net growth area inhibition” value [2, 4] was 36.2. The “schizont net growth area inhibition” value [2, 5] was 18.7, the hepatic nuclei reduction [3, 4] was 0% and the hepatic nuclei reduction [3, 5] was -2%.

In the case of `Cc1nn(C(=O)Nc2cccc(C(F)(F)F)c2)c(C)c1Sc1ncccn1`, the hypnozoite quantity inhibition [1, 4] is reported as -26, the hypnozoite quantity inhibition [1, 5] is reported as 0 and the “schizont net growth area inhibition” value [2, 4] is reported as 2.4. For the same compound, the “schizont net growth area inhibition” value [2, 5] was 35.8, the hepatic nuclei reduction [3, 4] was -8% and the hepatic nuclei reduction [3, 5] was 2%.

In the case of `Cc1ccc(S(=O)(=O)N2CCN(C(=O)c3cc(-c4ccccc4)[nH]n3)CC2)cc1`, the hypnozoite quantity inhibition [1, 4] is reported as -19, the hypnozoite quantity inhibition [1, 5] is reported as -46 and the “schizont net growth area inhibition” value [2, 4] is reported as 31.5. The “schizont net growth area inhibition” value [2, 5] was -137, the hepatic nuclei reduction [3, 4] was -6% and the hepatic nuclei reduction [3, 5] was 2%.

For `CCN(Cc1ccccc1)C1CCN(Cc2cc(Br)ccc2O)CC1`, the hypnozoite quantity inhibition [1, 4] was 12, the hypnozoite quantity inhibition [1, 5] was 31.9 and the “schizont net growth area inhibition” value [2, 4] was -5.7. For the same compound, the “schizont net growth area inhibition” value [2, 5] was 10.5, the hepatic nuclei reduction [3, 4] was 3% and the hepatic nuclei reduction [3, 5] was -10%.

In the case of `CC1CC2=C(CC1CNCCCN(C)C)C(C)(C)CCC2` (centres undefined), the hypnozoite quantity inhibition [1, 4] is reported as 24, the hypnozoite quantity inhibition [1, 5] is reported as 37.4 and the “schizont net growth area inhibition” value [2, 4] is reported as 90.6. For the same compound, the “schizont net growth area inhibition” value [2, 5] was -10, the hepatic nuclei reduction [3, 4] was 6% and the hepatic nuclei reduction [3, 5] was -3%.

In the case of `Cc1ccc(NC(=O)c2cc(S(=O)(=O)NC(C)(C)C)ccc2C)nc1`, the hypnozoite quantity inhibition [1, 4] is reported as -53, the hypnozoite quantity inhibition [1, 5] is reported as 4 and the “schizont net growth area inhibition” value [2, 4] is reported as -86.1. For the same compound, the “schizont net growth area inhibition” value [2, 5] was 32.8, the hepatic nuclei reduction [3, 4] was -11% and the hepatic nuclei reduction [3, 5] was 2%.

With `O=C(C(Cc1c[nH]c2ccccc12)NS(=O)(=O)c1ccc(Cl)cc1)N1CCCCC1` (centres undefined) the hypnozoite quantity inhibition [1, 4] was 28, the hypnozoite quantity inhibition [1, 5] was -46 and the “schizont net growth area inhibition” value [2, 4] was 16.6. The “schizont net growth area inhibition” value [2, 5] was -41.1, the hepatic nuclei reduction [3, 4] was 13% and the hepatic nuclei reduction [3, 5] was 5%.

`C[C@H]1[C@H](O)[C@@H](C)/C=C/C=C/C=C/C=C/C=C/C=C/C=C/[C@H](O[C@@H]2O[C@@H](C)[C@H](O)[C@@H](N)[C@H]2O)C[C@@H]2O[C@](O)(C[C@H](O)C[C@H](O)[C@@H](O)CC[C@H](O)C[C@H](O)CC(=O)O[C@H]1C)C[C@H](O)[C@H]2C(=O)O` was tested, and the hypnozoite quantity inhibition [1, 4] was -36, the hypnozoite quantity inhibition [1, 5] was -29 and the “schizont net growth area inhibition” value [2, 4] was 25.9. For the same compound, the “schizont net growth area inhibition” value [2, 5] was 2.6, the hepatic nuclei reduction [3, 4] was -11% and the hepatic nuclei reduction [3, 5] was -4%.

`Cc1ccc2nc(Cl)c(CNCc3cccs3)cc2c1` was tested, and the hypnozoite quantity inhibition [1, 4] was -62, the hypnozoite quantity inhibition [1, 5] was 6 and the “schizont net growth area inhibition” value [2, 4] was -0.3. For the same compound, the “schizont net growth area inhibition” value [2, 5] was -98.9, the hepatic nuclei reduction [3, 4] was -10% and the hepatic nuclei reduction [3, 5] was -2%.

In the case of `CC(=O)c1ccc(NC(=O)CSc2nc(-c3ccccc3Cl)ns2)cc1`, the hypnozoite quantity inhibition [1, 4] is reported as -19.9, the hypnozoite quantity inhibition [1, 5] is reported as 29 and the “schizont net growth area inhibition” value [2, 4] is reported as 0.3. For the same compound, the “schizont net growth area inhibition” value [2, 5] was 38, the hepatic nuclei reduction [3, 4] was -7% and the hepatic nuclei reduction [3, 5] was -3%.

`CN1CCC(NCc2cccc(-c3ccc(S(=O)(=O)NCc4ccccc4)cc3)c2)CC1` was tested, and the hypnozoite quantity inhibition [1, 4] was -50, the hypnozoite quantity inhibition [1, 5] was -10 and the “schizont net growth area inhibition” value [2, 4] was 66.3. The “schizont net growth area inhibition” value [2, 5] was 0.8, the hepatic nuclei reduction [3, 4] was 4% and the hepatic nuclei reduction [3, 5] was 4%.

For `Cc1cc(Nc2ccc(OCc3ccccc3)cc2)nc2cc(O)ccc12`, the hypnozoite quantity inhibition [1, 4] was -4.4, the hypnozoite quantity inhibition [1, 5] was 12.8 and the “schizont net growth area inhibition” value [2, 4] was -13.5. For the same compound, the “schizont net growth area inhibition” value [2, 5] was 22.3, the hepatic nuclei reduction [3, 4] was -1% and the hepatic nuclei reduction [3, 5] was -15%.

With `COc1cccc(NC(=O)c2c(NC(=O)c3cccnc3)sc3c2CCC3)c1` the hypnozoite quantity inhibition [1, 4] was -11, the hypnozoite quantity inhibition [1, 5] was -3 and the “schizont net growth area inhibition” value [2, 4] was -6.3. The “schizont net growth area inhibition” value [2, 5] was -27.1, the hepatic nuclei reduction [3, 4] was -7% and the hepatic nuclei reduction [3, 5] was -3%.

In the case of `CCOc1ccccc1C(=O)Nc1cccc(-c2nc3ncccn3c2C)c1`, the hypnozoite quantity inhibition [1, 4] is reported as -45, the hypnozoite quantity inhibition [1, 5] is reported as 7 and the “schizont net growth area inhibition” value [2, 4] is reported as 39.8. The “schizont net growth area inhibition” value [2, 5] was 28.8, the hepatic nuclei reduction [3, 4] was -2% and the hepatic nuclei reduction [3, 5] was -8%.

In the case of `N#Cc1ccc(-c2ccc(OCC(N)=O)cc2)cc1`, the hypnozoite quantity inhibition [1, 4] is reported as -6, the hypnozoite quantity inhibition [1, 5] is reported as -36 and the “schizont net growth area inhibition” value [2, 4] is reported as 3. The “schizont net growth area inhibition” value [2, 5] was -115, the hepatic nuclei reduction [3, 4] was -4% and the hepatic nuclei reduction [3, 5] was 8%.

In the case of `NC(=O)c1cc(-c2ccsc2)ccc1OCCOc1ccccc1`, the hypnozoite quantity inhibition [1, 4] is reported as 41, the hypnozoite quantity inhibition [1, 5] is reported as -49 and the “schizont net growth area inhibition” value [2, 4] is reported as 46.2. For the same compound, the “schizont net growth area inhibition” value [2, 5] was -169, the hepatic nuclei reduction [3, 4] was -1% and the hepatic nuclei reduction [3, 5] was -10%.

For `Cc1c(CCO)sc[n+]1CCCCCCCCCCCC[n+]1csc(CCO)c1C`, the hypnozoite quantity inhibition [1, 4] was -26, the hypnozoite quantity inhibition [1, 5] was 52 and the “schizont net growth area inhibition” value [2, 4] was 44.2. The “schizont net growth area inhibition” value [2, 5] was 39.9, the hepatic nuclei reduction [3, 4] was -13% and the hepatic nuclei reduction [3, 5] was -6%.

For `CN1CCN(S(=O)(=O)c2ccc(-c3ccc4c(Nc5ncc(Cl)cn5)ccnc4c3)cc2)CC1`, the hypnozoite quantity inhibition [1, 4] was 1, the hypnozoite quantity inhibition [1, 5] was 6 and the “schizont net growth area inhibition” value [2, 4] was 59.9. For the same compound, the “schizont net growth area inhibition” value [2, 5] was -66.3, the hepatic nuclei reduction [3, 4] was -5% and the hepatic nuclei reduction [3, 5] was -13%.
